From publication PMC8274477
Results are given in words; binding and its absence hold for the method and conditions named. Some entries that bind do so weakly or less than the wild type.

Assays:
Assay in all cases: peptide or protein array; HuProt human proteome microarray; 5 ug/5 ml biotin-labelled LUBAC or OTULIN in solution, 1 h at room temperature; Cy5-streptavidin, scanned at 635 nm; BSA as negative control; hits: Z-score >= 3 and I_(Mean_Ratio) >= 1.4; both purified
[1] = biological target: T1, CCNB1IP1 (human) (UniProt Q9NPC3)
T1 sequence: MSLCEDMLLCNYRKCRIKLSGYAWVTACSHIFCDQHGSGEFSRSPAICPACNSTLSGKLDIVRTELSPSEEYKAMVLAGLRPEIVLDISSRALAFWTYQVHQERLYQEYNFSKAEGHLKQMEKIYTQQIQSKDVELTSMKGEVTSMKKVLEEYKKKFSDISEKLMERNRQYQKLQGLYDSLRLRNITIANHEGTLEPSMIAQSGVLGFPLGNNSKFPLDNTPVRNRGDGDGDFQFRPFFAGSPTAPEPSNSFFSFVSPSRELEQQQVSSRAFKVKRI

[2] = biological target: T2, DOK1 (human) (UniProt Q99704)
T2 sequence: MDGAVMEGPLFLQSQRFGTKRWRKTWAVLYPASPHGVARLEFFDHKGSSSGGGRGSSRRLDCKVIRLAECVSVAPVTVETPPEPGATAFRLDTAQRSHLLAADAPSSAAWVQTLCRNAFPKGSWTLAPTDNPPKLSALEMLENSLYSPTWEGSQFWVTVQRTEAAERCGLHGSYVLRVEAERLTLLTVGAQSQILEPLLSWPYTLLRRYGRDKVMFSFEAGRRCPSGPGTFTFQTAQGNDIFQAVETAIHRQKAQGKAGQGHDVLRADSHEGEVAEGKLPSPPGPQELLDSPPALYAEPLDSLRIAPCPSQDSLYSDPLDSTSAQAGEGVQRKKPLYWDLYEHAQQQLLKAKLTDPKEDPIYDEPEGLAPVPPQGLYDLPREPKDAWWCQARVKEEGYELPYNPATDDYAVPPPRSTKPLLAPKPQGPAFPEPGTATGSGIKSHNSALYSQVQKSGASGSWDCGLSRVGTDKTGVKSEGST

[3] = biological target: T3, KCNAB1 (human) (UniProt Q14722)
T3 sequence: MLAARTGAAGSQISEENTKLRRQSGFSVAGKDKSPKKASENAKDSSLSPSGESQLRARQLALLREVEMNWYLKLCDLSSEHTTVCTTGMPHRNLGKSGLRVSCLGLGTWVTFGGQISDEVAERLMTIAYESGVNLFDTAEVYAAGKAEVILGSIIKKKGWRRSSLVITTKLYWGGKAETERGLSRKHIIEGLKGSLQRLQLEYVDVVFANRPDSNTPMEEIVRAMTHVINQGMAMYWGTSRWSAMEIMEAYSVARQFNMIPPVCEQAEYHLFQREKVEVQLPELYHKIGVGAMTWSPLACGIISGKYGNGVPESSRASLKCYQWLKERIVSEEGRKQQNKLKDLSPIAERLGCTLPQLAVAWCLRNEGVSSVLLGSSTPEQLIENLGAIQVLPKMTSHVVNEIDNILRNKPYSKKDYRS

[4] = biological target: T4, PRAM1 (human) (UniProt Q96QH2)
T4 sequence: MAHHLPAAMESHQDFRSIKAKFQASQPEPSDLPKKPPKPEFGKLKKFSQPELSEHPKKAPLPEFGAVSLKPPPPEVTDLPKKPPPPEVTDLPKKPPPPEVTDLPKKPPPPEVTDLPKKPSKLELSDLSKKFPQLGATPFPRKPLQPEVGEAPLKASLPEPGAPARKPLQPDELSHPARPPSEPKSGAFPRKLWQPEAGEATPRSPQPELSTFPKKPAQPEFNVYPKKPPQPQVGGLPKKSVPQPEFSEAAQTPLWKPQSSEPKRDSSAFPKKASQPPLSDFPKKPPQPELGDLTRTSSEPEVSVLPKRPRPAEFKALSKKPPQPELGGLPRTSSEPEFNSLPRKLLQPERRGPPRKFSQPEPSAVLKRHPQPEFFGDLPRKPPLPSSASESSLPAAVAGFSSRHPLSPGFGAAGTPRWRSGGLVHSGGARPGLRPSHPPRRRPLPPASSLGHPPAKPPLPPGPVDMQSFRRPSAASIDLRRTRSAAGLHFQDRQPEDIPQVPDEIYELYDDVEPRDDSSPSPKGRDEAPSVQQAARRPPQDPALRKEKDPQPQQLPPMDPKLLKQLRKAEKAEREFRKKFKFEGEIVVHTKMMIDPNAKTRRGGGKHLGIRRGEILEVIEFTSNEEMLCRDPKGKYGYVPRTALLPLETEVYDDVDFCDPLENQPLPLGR

[5] = biological target: T5, SMPD1 (human) (UniProt P17405)
T5 sequence: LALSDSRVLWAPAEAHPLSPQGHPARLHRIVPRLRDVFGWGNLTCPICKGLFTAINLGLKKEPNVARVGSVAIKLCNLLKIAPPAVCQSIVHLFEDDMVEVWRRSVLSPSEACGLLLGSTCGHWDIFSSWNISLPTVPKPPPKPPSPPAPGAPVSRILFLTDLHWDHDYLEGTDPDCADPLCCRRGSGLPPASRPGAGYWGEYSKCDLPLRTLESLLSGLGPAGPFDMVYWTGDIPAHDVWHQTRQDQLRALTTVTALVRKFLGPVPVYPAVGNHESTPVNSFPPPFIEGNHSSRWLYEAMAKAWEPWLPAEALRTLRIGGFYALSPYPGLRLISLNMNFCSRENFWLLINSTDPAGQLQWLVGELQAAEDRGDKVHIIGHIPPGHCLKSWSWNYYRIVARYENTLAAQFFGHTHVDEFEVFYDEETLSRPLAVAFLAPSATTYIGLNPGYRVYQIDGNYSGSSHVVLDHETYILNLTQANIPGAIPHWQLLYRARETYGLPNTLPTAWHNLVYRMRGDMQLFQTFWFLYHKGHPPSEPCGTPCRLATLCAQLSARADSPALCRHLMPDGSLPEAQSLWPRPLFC

binding [1]: binds
binding [2]: binds
binding [3]: binds
binding [4]: binds
binding [5]: binds
Substance: linear ubiquitin chain assembly complex (LUBAC), purified as HIS-tagged HOIP with the subunit HOIL-1, biotin-labelled (from UniProt Q96EP0 1-1072; Q9BYM8 1-510)
